No constants are given. Whether binding was seen depends on the method and setting. Some results given as binding are weak or reduced against the parent protein; the word gives no strength.
Columns and labels:
[1] = biological target: type IV collagen α3-SmBiT (fusion protein having SmBiT at the C-terminal of wild-type type IV collagen α3(IV) chain) (Homo sapiens (Human)) (UniProt Q01955); test: split luciferase (NanoBiT) complementation between α3-SmBiT and α5-LgBiT; signal seen only when α4-FLAG was co-expressed
[2] = biological target: type IV collagen α5-LgBiT (fusion protein having LgBiT at the C-terminal of wild-type type IV collagen α5(IV) chain) (Homo sapiens (Human)) (UniProt P29400); test: as above
[3] = biological target: type IV collagen α3-SmBiT (fusion protein having SmBiT at the C-terminal of wild-type type IV collagen α3(IV) chain) (Homo sapiens (Human)) (UniProt Q01955); test: split luciferase (NanoBiT) complementation; transfected amount of α4-FLAG plasmid varied, α3-SmBiT and α5-LgBiT co-expressed
[4] = biological target: type IV collagen α5-LgBiT (fusion protein having LgBiT at the C-terminal of wild-type type IV collagen α5(IV) chain) (Homo sapiens (Human)) (UniProt P29400); test: as above

Sequences of proteins named here, by UniProt entry; tags and fusion partners are left off. A change or cut given only in a name is not applied to a line headed by its entry.
UniProt Q01955: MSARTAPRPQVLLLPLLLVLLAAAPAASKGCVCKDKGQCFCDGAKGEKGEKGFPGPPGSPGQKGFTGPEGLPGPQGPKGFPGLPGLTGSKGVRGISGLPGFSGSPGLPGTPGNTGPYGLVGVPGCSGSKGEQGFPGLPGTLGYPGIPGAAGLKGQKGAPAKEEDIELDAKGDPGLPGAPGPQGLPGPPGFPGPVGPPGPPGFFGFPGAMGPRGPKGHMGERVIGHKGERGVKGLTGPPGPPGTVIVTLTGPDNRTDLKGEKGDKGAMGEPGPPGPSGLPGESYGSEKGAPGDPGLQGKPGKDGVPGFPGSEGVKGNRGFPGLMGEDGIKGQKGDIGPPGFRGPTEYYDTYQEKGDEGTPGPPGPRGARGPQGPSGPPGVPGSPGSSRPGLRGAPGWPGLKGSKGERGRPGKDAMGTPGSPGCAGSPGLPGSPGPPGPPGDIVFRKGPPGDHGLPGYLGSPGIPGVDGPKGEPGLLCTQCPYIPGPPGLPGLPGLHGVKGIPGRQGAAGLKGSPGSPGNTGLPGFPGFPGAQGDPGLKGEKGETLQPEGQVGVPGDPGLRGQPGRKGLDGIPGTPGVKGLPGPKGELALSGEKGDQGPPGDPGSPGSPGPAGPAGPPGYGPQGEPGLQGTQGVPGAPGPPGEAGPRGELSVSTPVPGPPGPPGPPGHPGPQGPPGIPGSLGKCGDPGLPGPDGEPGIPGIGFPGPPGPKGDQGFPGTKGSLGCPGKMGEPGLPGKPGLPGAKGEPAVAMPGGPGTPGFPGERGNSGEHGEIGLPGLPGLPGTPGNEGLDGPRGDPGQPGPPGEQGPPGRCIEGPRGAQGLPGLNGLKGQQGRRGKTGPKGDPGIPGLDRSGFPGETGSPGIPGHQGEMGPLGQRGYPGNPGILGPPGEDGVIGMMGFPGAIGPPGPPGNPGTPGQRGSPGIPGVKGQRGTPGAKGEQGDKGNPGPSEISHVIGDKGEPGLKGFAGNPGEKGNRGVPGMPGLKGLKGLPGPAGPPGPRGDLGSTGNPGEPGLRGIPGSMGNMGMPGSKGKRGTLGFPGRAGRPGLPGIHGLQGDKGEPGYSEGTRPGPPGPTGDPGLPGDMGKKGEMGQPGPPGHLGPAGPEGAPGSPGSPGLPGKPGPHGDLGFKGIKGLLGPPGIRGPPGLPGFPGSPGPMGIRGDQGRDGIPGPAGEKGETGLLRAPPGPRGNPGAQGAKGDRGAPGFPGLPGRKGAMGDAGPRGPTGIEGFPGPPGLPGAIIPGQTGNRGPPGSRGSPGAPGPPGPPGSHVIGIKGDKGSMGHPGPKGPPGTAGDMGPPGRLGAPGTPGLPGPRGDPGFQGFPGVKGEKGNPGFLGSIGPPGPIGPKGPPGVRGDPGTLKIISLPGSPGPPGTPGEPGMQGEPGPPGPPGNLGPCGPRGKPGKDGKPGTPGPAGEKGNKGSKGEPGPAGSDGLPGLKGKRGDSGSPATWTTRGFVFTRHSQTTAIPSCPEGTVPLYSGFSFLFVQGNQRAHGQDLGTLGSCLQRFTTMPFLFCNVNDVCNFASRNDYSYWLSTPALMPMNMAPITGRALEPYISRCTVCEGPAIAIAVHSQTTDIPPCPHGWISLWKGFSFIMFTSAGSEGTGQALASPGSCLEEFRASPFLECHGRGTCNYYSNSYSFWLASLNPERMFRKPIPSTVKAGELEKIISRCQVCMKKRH
UniProt P29400: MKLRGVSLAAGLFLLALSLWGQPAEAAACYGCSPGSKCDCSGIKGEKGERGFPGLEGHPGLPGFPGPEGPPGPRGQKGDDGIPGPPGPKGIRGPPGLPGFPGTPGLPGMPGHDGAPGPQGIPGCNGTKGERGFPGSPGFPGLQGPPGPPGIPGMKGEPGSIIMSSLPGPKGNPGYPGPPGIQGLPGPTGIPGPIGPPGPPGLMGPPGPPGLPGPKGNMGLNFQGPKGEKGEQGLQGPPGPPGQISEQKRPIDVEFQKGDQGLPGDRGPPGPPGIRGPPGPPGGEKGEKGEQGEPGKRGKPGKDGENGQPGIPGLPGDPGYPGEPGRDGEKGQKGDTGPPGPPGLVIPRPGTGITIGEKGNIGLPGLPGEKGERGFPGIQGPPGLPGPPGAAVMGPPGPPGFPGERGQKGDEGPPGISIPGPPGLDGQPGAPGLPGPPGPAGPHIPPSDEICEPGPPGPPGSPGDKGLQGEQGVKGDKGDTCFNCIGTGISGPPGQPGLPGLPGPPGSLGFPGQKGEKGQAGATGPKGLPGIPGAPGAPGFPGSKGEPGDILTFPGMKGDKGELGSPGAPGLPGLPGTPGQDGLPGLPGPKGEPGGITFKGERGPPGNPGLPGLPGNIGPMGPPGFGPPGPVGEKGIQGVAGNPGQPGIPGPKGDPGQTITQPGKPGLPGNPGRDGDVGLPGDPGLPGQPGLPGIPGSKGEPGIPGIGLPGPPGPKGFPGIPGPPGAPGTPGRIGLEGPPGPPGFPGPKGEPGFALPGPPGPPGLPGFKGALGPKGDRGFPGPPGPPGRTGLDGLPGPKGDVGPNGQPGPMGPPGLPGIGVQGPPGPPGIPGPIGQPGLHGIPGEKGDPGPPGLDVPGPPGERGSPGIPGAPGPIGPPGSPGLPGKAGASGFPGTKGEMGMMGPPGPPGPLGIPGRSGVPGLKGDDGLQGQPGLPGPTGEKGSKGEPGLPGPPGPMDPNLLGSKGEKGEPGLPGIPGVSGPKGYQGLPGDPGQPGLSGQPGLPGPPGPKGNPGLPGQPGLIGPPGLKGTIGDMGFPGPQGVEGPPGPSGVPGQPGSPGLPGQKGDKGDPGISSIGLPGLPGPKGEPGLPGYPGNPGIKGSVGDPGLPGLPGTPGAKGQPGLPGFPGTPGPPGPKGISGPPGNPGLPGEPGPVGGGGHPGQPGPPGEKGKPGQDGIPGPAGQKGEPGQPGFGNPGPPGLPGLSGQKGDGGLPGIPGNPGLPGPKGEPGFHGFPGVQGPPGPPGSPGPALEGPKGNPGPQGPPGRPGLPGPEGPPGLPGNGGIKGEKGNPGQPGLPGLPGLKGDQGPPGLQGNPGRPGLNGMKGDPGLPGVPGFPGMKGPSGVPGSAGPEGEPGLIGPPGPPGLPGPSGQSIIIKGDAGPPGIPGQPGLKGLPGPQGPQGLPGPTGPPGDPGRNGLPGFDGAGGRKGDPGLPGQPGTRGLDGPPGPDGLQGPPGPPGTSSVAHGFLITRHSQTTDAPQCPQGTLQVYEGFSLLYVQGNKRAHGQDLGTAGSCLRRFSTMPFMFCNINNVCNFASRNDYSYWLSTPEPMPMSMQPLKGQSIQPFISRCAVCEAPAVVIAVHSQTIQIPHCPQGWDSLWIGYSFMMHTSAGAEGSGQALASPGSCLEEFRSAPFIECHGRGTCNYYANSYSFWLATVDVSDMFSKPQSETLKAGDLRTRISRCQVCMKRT
UniProt P53420: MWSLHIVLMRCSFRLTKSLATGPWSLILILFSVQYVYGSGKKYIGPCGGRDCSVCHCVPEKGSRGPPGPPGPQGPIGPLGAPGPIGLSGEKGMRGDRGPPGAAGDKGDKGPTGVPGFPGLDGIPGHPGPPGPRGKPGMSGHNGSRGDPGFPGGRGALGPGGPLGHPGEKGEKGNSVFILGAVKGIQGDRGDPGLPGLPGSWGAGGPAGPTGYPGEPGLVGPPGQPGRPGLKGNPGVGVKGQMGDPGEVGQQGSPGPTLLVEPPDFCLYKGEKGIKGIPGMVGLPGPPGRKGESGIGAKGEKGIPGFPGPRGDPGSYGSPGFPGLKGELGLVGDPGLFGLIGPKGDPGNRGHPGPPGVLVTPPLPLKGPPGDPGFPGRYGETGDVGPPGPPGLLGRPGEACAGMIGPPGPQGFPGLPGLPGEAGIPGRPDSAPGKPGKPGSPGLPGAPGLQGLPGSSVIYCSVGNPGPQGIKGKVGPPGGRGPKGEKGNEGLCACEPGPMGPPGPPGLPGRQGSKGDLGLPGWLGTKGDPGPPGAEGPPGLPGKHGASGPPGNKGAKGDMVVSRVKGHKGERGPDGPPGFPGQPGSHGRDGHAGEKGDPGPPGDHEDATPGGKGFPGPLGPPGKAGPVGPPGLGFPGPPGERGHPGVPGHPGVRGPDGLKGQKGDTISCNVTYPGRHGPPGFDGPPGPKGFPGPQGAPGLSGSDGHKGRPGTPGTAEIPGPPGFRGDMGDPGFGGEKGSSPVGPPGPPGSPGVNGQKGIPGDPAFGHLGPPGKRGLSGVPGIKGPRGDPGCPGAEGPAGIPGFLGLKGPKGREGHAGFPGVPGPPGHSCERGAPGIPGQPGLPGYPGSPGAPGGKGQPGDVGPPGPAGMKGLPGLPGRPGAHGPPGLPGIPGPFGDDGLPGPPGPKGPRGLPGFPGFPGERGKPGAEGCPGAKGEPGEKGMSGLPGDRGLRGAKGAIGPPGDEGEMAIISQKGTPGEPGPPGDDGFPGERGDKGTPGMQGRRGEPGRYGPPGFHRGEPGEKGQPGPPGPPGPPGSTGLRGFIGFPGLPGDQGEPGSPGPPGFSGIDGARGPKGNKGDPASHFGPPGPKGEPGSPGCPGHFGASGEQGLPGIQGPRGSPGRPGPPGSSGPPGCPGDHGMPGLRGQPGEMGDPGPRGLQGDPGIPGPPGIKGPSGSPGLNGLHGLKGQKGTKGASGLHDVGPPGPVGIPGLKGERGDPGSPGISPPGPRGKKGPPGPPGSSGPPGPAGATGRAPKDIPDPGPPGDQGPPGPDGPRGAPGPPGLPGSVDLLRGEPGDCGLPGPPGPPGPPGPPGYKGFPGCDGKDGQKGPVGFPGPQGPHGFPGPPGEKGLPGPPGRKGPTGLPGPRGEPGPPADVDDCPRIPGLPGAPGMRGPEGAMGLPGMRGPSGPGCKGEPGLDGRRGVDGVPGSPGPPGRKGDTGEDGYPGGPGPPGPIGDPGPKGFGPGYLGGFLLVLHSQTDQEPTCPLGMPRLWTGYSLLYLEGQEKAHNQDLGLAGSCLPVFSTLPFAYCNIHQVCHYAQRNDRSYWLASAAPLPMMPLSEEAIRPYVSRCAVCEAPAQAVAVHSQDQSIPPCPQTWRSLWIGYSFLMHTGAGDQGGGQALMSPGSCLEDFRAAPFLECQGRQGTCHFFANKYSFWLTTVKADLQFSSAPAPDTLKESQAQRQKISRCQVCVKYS

Measured: binding

type IV collagen α4-FLAG (fusion protein having a FLAG tag at the C-terminal of wild-type type IV collagen α4(IV) chain) (from UniProt P53420 39-1690)
binds: all assays above
